# Reference: patent US7127357B1, “Crystal structure of WW domains and methods of use thereof” (The Salk Institute for Biological Studies, priority 2000, dated 2006)
# Protein sequences, listed by entry. Tags and fused reporters are not part of them. Residues count along the entry.
# UniProt Q13526, 1-39 limits assumed: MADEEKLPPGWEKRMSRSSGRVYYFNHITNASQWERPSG
# At least one peptide structure holds a part that was inferred or is arguable (an end, a ring closure or a residue). Non-standard residues stand in square brackets, D forms with d. Residues, ends and D or L forms follow the SMILES beside them. *: point of attachment. X1 = CN(C)c1ccc2c(c1)Oc1cc(N(C)C)ccc1C21OC(=O)c2cc(NC(=S)*)ccc21; pT = C[C@@H](OP(=O)(O)O)[C@H](N)C(=O)O
# Biological target: T1, Pin1 WW domain (Homo sapiens, UniProt Q13526)
# T1 construct: The WW domain of Pin1 includes residues 1 to 39
# Experiment: Fluorescence anisotropy binding of rhodamine-labeled peptides to isolated Pin1 WW domain
# Conditions: read-out: Dissociation equilibrium constants for Pin1-peptide complexes, WW
# Method: Protein purification and crystallography. His8-tagged Pin1 was expressed and purified by Ni^+2-chelation chromatography, the histidine tag was removed by thrombin digestion, and the protein purified as described in Ranganathan et al., Cell 89:875–886, 1997. All site-directed mutants were constructed using the QuikChange (Stratagene) protocol and purified like wild type Pin1. Crystals of the Pin1-YpSPTpSPS complex were grown in hanging drops at 4° C. by mixing 1.0 μl of the Pin1-peptide complex with 1.0 μl of a reservoir solution containing 100 mM MOPSO-Na^+ (pH 7.0), 28% (v/v) PEG 8000, 2 mM DTT, stabilized in 100 mM MOPSO-Na^+ (pH 7.0), 25% (v/v) PEG 8000, 20% (v/v) glycerol, 1 mM DTT, and rapidly frozen in a 100 K stream of nitrogen gas. […]
# Binding Analysis. […] Fluorescence data were collected on a PTI Alphascan spectrofluorimeter (Photon Technology Instruments, Santa Clara, Calif.). Dissociation equilibrium constants for Pin1-peptide complexes were determined by measuring the change in fluorescence anisotropy of a set of peptide solutions at constant concentration of peptide each of which contained varied concentrations of Pin1 using the procedure described previously (Vinson et al., Biochemistry 37:10871–10880, 1998). The core binding element determined from this group of peptides is PXpSP, where X cannot be Gly. […]
smiles,measurement,value
"C[C@H](NC(=O)[C@@H]1CCCN1C(=O)[C@@H]1CCCN1C(=S)Nc1ccc2c(c1)C(=O)OC21c2ccc(N(C)C)cc2Oc2cc(N(C)C)ccc21)C(=O)N[C@H](C(=O)N1CCC[C@H]1C(=O)N1CCC[C@H]1C(=O)O)[C@@H](C)OP(=O)(O)O [PPApTPP (Myt1-T412), PPApTPP] (X1-PPA[pT]PP-OH)",Kd,15 ± 4.7 µM
